US20070232577A1, “Synthetic pentacyclic triterpenoids and derivatives of betulinic acid and betulin” (Advanced Life Sciences, Inc., priority 2006, published 2007)
Some of these results come from one statement about several compounds together.

How the values were obtained:
[1] = tested on: Daoy (glioblastoma); assay: MTS cell viability assay, Daoy
[2] = tested on: SK-MEL-2 (melanoma); assay: MTS cell viability assay, SK-MEL-2

SMILES | improvement in cytotoxicity relative to betulinic acid 1 in Daoy [1] | improvement in cytotoxicity relative to betulinic acid 1 in SK-MEL-2 [2]
C=C(C)[C@@H]1CC[C@]2(C=O)CC[C@]3(C)[C@H](CC[C@@H]4[C@@]5(C)CCC(=O)C(C)(C)[C@@H]5CC[C@]43C)[C@@H]12 [Compound 66, (1R,3aS,5aR,5bR,7aR,11aR,11bR,13aR,13bR)-5a,5b,8,8,11a-pentamethyl-9-oxo-1-(prop-1-en-2-yl)icosahydro-1H-cyclopenta[a]chrysene-3a-carbaldehyde] | greater than 5 fold | 
C=C(C)[C@@H]1CC[C@]2(CO)CC[C@]3(C)[C@H](CC[C@@H]4[C@@]5(C)CC[C@H](OC(=O)/C=C/c6ccc(O)c(O)c6)C(C)(C)[C@@H]5CC[C@]43C)[C@@H]12 [Compound 29, (E)-((1R,3aS,5aR,5bR,7aR,9S,11aR,11bR,13aR,13b R)-3a-(hydroxymethyl)-5a,5b,8,8,11a-pentamethyl-1-(prop-1-en-2-yl)icosahydro-1H-cyclopenta[a]chrysen-9-yl) 3-(3,4-dihydroxyphenyl)acrylate] |  | greater than 5 fold
